Measurements: paper doi:10.1101/2020.02.05.936237
Results are given in words; binding and its absence hold for the method and conditions named. Binding seen in cells or lysates may run through a third protein. A yes stands for co-enrichment or nearness to the bait. Other partners may have been found. Where a sequence is shown, tags or fusion partners need not be part of it.

Protein sequences, listed by entry. Tags and fused reporters are not part of them.
UniProt P40160: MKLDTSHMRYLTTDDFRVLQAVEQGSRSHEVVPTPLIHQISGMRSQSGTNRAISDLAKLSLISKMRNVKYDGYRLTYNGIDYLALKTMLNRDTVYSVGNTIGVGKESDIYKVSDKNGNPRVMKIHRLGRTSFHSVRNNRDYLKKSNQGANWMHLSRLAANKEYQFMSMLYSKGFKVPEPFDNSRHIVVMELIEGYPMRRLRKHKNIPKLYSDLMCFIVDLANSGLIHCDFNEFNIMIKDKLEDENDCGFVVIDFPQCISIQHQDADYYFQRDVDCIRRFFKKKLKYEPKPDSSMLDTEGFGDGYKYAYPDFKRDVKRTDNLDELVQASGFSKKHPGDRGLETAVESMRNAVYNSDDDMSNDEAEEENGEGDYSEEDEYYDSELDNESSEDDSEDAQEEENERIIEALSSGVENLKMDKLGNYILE

B1: Tsr1 (protein, UniProt Q07381 1-788)
chain: MAGHSHRSSLKNGHKSYKSKHASKGALKRLYKGKVEKEPVGTGKPDKQVSKLQRKNKAKQLRAQRILDSIENRKLFEGKNGAAKIITIVPLVNDLDPLDILYKLLKCADDEGIMVQEVDSKRIFNVHIKKFKSNLKIIIPDMTNFLNILDCAKVADFVVFGLSGVQEVDEEFGEQIIRALELQGIASYIGVISNLSAVHEKEKFQLDVKQSLESYFKHFFPSEERVYNLEKNSDALNVLRTLCQRLPRSINWRDNRGYVVADFVDFVETSPDSGDLVIEGTVRGIGFNANRLVHIPDFGDFQLNKIEKISESSQKRKIIKEKATDSLSLELDLQTVFESNMNRDTLDEYAPEGTEDWSDYDEDFEYDGLTTARYDDHGFLPGREQTSKKAAVPKGTSDYQAKWYLDDVIDANEEEEAEQTNGKDETMMEIDDEMMVEQDNEEVAGDEEYDIEDNEGFEELSPEEEERQLREFRDMEKEDREFPDEIELEPSESAIERLKRYRGLKNLYNCDWQVDEKDPSSPAEWKRLLRIGNYKNTKNRIIKETKNEAQAIAGDRIRMFIRFPKFLLEKIQDPKQLLFAVYGLLLHEHKNAVVNFSLQRWEQYDKPVPSQEPIVVQYGVRRYTIQPLFSQGSNSPNNVHKYERFLHPDTVSVATCIAPVDFTQSPAIFFKPSPTDAKNIELIGHGTFLNADHSRILAKRAILTGHPFRFHKTVVTVRYMFFRPEDVEWFKSIPLFTKSGRSGFIKESLGTHGYFKATFDGKLSAQDVVAMSLYKRMWPMPSLPWNGM
B2: Nob1 (protein, UniProt Q08444 1-459)
chain: MTENQTAHVRALILDATPLITQSYTHYQNYAQSFYTTPTVFQEIKDAQARKNLEIWQSLGTLKLVHPSENSIAKVSTFAKLTGDYSVLSANDLHILALTYELEIKLNNGDWRLRKKPGDALDASKADVGTDGKQKLTEDNKKEEDSESVPKKKNKRRGGKKQKAKREAREAREAENANLELESKAEEHVEEAGSKEQICNDENIKESSDLNEVFEDADDDGDWITPENLTEAIIKDSGEDTTGSLGVEASEEDRHVALNRPENQVALATGDFAVQNVALQMNLNLMNFMSGLKIKRIRNYMLRCHACFKIFPLPKDGKPKHFCASCGGQGTLLRCAVSVDSRTGNVTPHLKSNFQWNNRGNRYSVASPLSKNSQKRYGKKGHVHSKPQENVILREDQKEYEKVIKQEEWTRRHNEKILNNWIGGGSADNYISPFAITGLKQHNVRIGKGRYVNSSKRRS
B3: Utp2 (endogenous) (protein, UniProt Q99207 1-810)
chain: MAGSQLKNLKAALKARGLTGQTNVKSKNKKNSKRQAKEYDREEKKKAIAEIREEFNPFEIKAARNKRRDGLPSKTADRIAVGKPGISKQIGEEQRKRAFEARKMMKNKRGGVIDKRFGERDKLLTEEEKMLERFTRERQSQSKRNANLFNLEDDEDDGDMFGDGLTHLGQSLSLEDELANDEEDFLASKRFNEDDAELQQPQRKKTKAEVMKEVIAKSKFYKQERQKAQGIMEDQIDNLDDNFEDVMSELMMTQPKKNPMEPKTDLDKEYDIKVKELQLDKRAAPSDRTKTEEEKNAEAEEKKRELEQQRLDRMNGMIELEEGEERGVEDLDDGFWENEEDYEDDNDGIADSDDDIKFEDQGRDEGFSQILKKKNISISCPRTHDALLDQVKKLDLDDHPKIVKNIIKAYQPKLAEGNKEKLGKFTAVLLRHIIFLSNQNYLKNVQSFKRTQNALISILKSLSEKYNRELSEECRDYINEMQARYKKNHFDALSNGDLVFFSIIGILFSTSDQYHLVITPALILMSQFLEQIKFNSLKRIAFGAVLVRIVSQYQRISKRYIPEVVYFFQKILLTFIVEKENQEKPLDFENIRLDSYELGLPLDVDFTKKRSTIIPLHTLSTMDTEAHPVDQCVSVLLNVMESLDATISTVWKSLPAFNEIILPIQQLLSAYTSKYSDFEKPRNILNKVEKLTKFTEHIPLALQNHKPVSIPTHAPKYEENFNPDKKSYDPDRTRSEINKMKAQLKKERKFTMKEIRKDAKFEARQRIEEKNKESSDYHAKMAHIVNTINTEEGAEKNKYERERKLRGGKK

molecular target: T1, Enp1-TAP (Enp1 harboring a C-terminal Tandem Affinity Purification tag) (S. cerevisiae) (UniProt P38333); experiment: affinity purification with mass spectrometry
T1 sequence: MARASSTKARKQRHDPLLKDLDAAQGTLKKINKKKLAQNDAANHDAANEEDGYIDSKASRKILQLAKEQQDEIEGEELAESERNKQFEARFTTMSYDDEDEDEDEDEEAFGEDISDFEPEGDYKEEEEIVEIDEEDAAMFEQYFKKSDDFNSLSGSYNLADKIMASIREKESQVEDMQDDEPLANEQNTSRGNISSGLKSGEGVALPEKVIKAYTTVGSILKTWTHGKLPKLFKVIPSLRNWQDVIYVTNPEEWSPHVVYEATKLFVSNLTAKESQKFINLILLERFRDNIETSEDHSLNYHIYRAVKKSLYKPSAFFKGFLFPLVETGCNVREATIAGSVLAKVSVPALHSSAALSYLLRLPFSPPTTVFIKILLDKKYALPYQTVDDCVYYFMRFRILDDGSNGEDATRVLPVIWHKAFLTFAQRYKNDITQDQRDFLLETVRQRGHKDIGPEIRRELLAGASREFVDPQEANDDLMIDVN

binding, binds:
Rio2 (from UniProt P40160 1-425), B1, B2, B3
